This is an account of results in article PMC6941224.

Chains of the proteins cited; added tags and fusions are not shown.
UniProt P41235, whole entry R85W: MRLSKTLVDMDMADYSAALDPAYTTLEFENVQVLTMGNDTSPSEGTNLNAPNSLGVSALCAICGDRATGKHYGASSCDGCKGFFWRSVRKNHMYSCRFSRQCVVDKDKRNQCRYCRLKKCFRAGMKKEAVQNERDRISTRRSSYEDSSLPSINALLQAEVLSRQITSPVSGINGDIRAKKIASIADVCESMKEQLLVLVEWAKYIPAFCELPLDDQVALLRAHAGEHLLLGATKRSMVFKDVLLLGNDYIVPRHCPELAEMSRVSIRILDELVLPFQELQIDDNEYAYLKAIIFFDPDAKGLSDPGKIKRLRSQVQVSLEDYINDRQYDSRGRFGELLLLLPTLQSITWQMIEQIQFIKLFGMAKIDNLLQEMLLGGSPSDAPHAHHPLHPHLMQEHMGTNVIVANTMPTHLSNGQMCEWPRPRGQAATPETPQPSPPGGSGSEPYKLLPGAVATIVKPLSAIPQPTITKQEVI
UniProt P41235, whole entry R85W/S87A: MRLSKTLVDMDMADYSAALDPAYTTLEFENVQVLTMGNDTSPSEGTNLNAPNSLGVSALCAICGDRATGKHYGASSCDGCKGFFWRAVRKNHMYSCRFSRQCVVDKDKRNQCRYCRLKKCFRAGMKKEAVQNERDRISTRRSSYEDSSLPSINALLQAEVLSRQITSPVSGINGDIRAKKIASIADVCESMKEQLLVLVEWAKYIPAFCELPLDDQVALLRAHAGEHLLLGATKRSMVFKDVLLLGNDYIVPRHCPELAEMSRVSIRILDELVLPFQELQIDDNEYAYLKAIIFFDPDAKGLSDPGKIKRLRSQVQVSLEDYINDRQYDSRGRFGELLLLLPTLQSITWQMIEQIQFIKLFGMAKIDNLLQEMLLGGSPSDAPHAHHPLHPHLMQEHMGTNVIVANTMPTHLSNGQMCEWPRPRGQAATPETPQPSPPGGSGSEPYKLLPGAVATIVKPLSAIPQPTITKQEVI
UniProt P41235, whole entry R89W: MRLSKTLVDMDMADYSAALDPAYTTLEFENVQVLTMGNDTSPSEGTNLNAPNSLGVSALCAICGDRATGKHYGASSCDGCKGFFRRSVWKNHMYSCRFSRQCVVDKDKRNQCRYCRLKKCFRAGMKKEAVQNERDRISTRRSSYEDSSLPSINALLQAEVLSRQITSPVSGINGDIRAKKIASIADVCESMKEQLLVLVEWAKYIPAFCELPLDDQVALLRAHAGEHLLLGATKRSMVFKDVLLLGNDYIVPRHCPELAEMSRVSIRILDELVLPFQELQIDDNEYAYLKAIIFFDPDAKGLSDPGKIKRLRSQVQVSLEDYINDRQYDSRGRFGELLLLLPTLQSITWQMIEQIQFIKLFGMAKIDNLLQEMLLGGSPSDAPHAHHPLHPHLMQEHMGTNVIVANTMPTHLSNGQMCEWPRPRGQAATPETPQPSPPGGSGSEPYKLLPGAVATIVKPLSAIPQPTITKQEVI
UniProt P41235, whole entry S87A: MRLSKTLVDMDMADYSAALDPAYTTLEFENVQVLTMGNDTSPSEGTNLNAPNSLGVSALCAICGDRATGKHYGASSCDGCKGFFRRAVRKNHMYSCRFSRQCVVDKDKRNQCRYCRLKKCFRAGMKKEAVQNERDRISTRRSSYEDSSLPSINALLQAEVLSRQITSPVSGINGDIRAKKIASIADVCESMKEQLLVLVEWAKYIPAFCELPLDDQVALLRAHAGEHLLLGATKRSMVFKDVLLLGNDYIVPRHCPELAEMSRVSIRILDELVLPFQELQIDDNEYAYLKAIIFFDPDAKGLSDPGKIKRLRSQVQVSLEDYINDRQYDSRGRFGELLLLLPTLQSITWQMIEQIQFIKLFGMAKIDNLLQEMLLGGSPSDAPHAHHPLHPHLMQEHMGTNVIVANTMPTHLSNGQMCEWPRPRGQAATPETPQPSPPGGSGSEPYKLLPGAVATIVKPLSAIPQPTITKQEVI

The exact form of at least one protein or probe is not confirmed. At least one result comes from cells or an extract, where the contact may be indirect. For some assays here: Weaker means in comparison with the reference protein, sequence or condition of that experiment.

Some targets named below: HNF4A2 R85W (human) (UniProt P41235); HNF4A2 R85W/S87A (human) (UniProt P41235); HNF4A2 R89W (human) (UniProt P41235); HNF4A2 S87A (human) (UniProt P41235); HNF4A2 WT (human) (UniProt P41235).
Common to all, as to experiment: EMSA
Common to all, as to details: 20 uL: 1 uL IRDye 700 probe (50 nM), 2.5 ug COS-7 nuclear extract, 1x LI-COR Odyssey EMSA binding buffer, 2.5 mM DTT/0.25% Tween 20, 1 ug poly(dI-dC); 30 min …; protein in a lysate after overexpression; residues 1-474; protein details: Myc; label: IRDye 700 (IRD700 at 5' end of printed strand)

Regarding “AAAGGTCCAAAGGGCGCCT (double strand) [ApoAI site A probe]”, the binding result in the data set with HNF4A2 R85W (human) is recorded as “binds more weakly”; with HNF4A2 R85W/S87A (human) it was “binds more weakly”; with HNF4A2 R89W (human), “binds more weakly”; in the data set with HNF4A2 S87A (human), “binds”; with HNF4A2 WT (human), “binds”.
